Among the data in PubChem BioAssay AID1487 (National Center for Advancing Translational Sciences (NCATS), 2009) are AC50 values, retold here.

Values joined by “and” are separate entries in the source; they are usually repeats but may differ in a detail not shown here. Equal entries are not always repeated. This is one part of the list. Further columns of the screen follow, without active or inactive calls. The list favours compounds with an active or inconclusive main result. The note in brackets gives the kind of curve behind each potency; many fits are weak.

The assay is described as follows: qHTS Assay for Modulators of Lamin A Splicing. The settings on record: HeLa LMNA splicing GFP/RFP minigene ratio, 48 h. In a few lines: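 S3 HeLa cells stably expressing lamin A-EGFP splicing minigene plus DsRed2, 600 cells/well, 48 h compound exposure at 37C. Laser-scanning cytometry; analysed as GFP (500-530 nm)/RFP (575-640 nm) total intensity ratio; 0.5% DMSO vehicle.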

[1] abbreviates: measured here: RFP viability control channel.
Setting [2] is: measured here: GFP splicing reporter channel.

Consider `C=CCN1C(=O)C2(C(C(=O)OCC)=C(N)Oc3c2c(=O)oc2ccccc32)c2ccccc21` (stereo unspecified), for which the AC50 – broadly, the concentration giving half of the maximal activity seen – under setting [1] is 3.55 µM [rising, single point].

As to `O=C1/C(=C\c2ccc3c(c2)OCO3)N2CCC1CC2`, the AC50 under setting [2] is 14.1 µM [rising, partial curve, poor fit].

Take `COc1cc(CC(C)N)c(OC)cc1I` (stereo unspecified): the AC50 under setting [1] is 0.00141 µM [falling, full curve, poor fit].

With `Cc1cc(C(C)(C)C)cc(C)c1CC1=NCCN1`, the AC50 is 4.47 µM [falling, partial curve, poor fit] and 200 nM [falling, full curve, poor fit] under setting [2]; 7.94 µM [falling, single point] under setting [1].

For the compound `CC1CCC(C(C)C)C(OP(N)(=O)c2ccccc2)C1` (stereo unspecified), under setting [1], the concentration at half-maximal activity (AC50) is 12.6 µM [rising, single point].

Consider `O=P(O)(O)C(O)(Cn1ccnc1)P(=O)(O)O`, for which the AC50 is, setting by setting: under setting [2], 1.12 µM [falling, partial curve]; under setting [1], 0.631 µM [falling, single point].

Take `CCCOP(=O)(OCCC)C(Nc1cccc(C(F)(F)F)c1)c1ccc(C)cc1` (stereo unspecified): the AC50 under setting [1] was 15.8 µM [rising, partial curve].

`COc1ccc(C(=O)C2CCCN(C3CSCCSC3)C2)cc1OC` (stereo unspecified): the AC50 under setting [1] is 0.158 µM [falling, full curve, poor fit].

For the compound `CCC1(c2ccccc2)C(=O)N(COC)C(=O)N(COC)C1=O`, the AC50 is 2.51 µM [rising, partial curve, poor fit] under setting [2] and 4.47 µM [rising, partial curve, poor fit] under setting [1].

Turning to `CCOP(=O)(OCC)C(Nc1cccc(C(F)(F)F)c1)c1ccc(Br)cc1` (stereo unspecified), the AC50 under setting [1] was 35.5 µM [rising, single point].

As for `C[C@]12CC[C@H](O)C[C@@H]1CC[C@H]1[C@H]2CC[C@]2(C)C(=O)CC[C@@H]12`, the half-maximal activity concentration (AC50) was 0.447 µM [falling, partial curve, poor fit] under setting [2] and 0.501 µM [falling, partial curve, poor fit] under setting [1].

On to `O=C(C[N+]12CCC(CC1)C(CO)C2)c1ccc([N+](=O)[O-])cc1` (stereo unspecified), for which, under setting [1], the AC50 is 0.0708 µM [falling, full curve, poor fit].

In the case of `O=C(Cc1cc(=O)[nH][nH]1)N/N=C/c1cccc2ccccc12`, the AC50 runs as follows: under setting [2], 0.158 µM [falling, full curve, poor fit]; under setting [1], 4.47 µM [falling, partial curve, poor fit].

On to `O=C(CF)NC(Nc1cccc2cccnc12)C(Cl)(Cl)Cl` (stereo unspecified), for which the concentration at half-maximal activity (AC50) under setting [1] is 1.78 µM [rising, partial curve, poor fit].

Regarding `CCOC(=O)C1C(C=C(C)C)C1(C)C` (stereo unspecified), the AC50 under setting [1] is 35.5 µM [rising, single point].

Consider `CN(C)CC1CSCCC1(O)c1ccc(C(F)(F)F)cc1` (stereo unspecified), for which the AC50 under setting [1] was 0.00794 µM [rising, full curve, poor fit].

For the compound `C/C=C\c1ccc(OC)cc1`, the AC50 was 0.0794 µM [falling, full curve, poor fit] under setting [2] and 0.316 µM [falling, partial curve] under setting [1].

Take `OC(COCc1ccc(Cl)cc1)CN1CC=C(c2ccccc2)CC1` (stereo unspecified): the AC50 under setting [2] is 17.8 µM [rising, single point] and the AC50 under setting [1] is 20 µM [rising, single point].

`Cc1ccccc1NC(=O)CSc1nc2ccccc2c2nc(CCn3c(C)nc4ccccc43)nn12`: the AC50 runs as follows: under setting [2], 35.5 µM [falling, single point]; under setting [1], 6.31 µM [falling, partial curve, poor fit].

For the compound `O=[N+]([O-])C(Br)(CO)CO`, the AC50 under setting [2] is 35.5 µM [falling, single point] and the AC50 under setting [1] was 35.5 µM [falling, single point].

As to `CCCCCn1c(=O)c(C(=O)NCc2ccco2)c(O)c2ccccc21`, under setting [1], the AC50 was 28.2 µM [rising, single point].

For the compound `CCOc1ccc(S(=O)(=O)NCCc2sc3nc(-c4ccc(C)cc4)nn3c2C)cc1`, the concentration at half-maximal activity (AC50) is 0.316 µM [falling, full curve, poor fit] under setting [2] and 44.7 µM [falling, partial curve, poor fit] under setting [1].

For `CCCCCSc1cc(O)c(C(CNC)C(C)C)cc1OC` (stereo unspecified), the AC50 under setting [2] was 11.2 µM [rising, partial curve] and the AC50 under setting [1] was 17.8 µM [rising, partial curve].

As for `Cc1ccc(-c2nc3ccccc3c(=O)n2-c2cc(C)ccn2)cc1`, the AC50 by setting is: under setting [2], 3.16 µM [falling, single point]; under setting [1], 5.62 µM [falling, single point].

Consider `Cc1sc2ccccc2c1CC1=NCCN1`, for which the AC50 is, setting by setting: under setting [2], 0.00224 µM [falling, full curve, poor fit]; under setting [1], 11.2 µM [falling, partial curve].

As to `CCCCn1c(O)c(/C=N/N2CCCCC2c2cccnc2)c(=O)[nH]c1=S` (stereo unspecified), the AC50 was 0.178 µM [falling, full curve, poor fit] under setting [2] and 0.2 µM [falling, full curve, poor fit] under setting [1].

As for `COc1cccc(CNc2ccc(S(N)(=O)=O)cc2)c1OCc1ccccc1F`, the AC50 by setting is: under setting [2], 22.4 µM [rising, partial curve, poor fit]; under setting [1], 22.4 µM [rising, partial curve].

For `CCN(CC)C(=O)N[C@H]1C=C2c3cccc4[nH]cc(c34)C[C@@H]2N(C)C1`, the AC50 is 0.447 µM [falling, full curve] under setting [2] and 0.01 µM [falling, full curve, poor fit] under setting [1].

For the compound `COc1cc2c(cc1O)C[C@H]1NCCc3cc4c(c-2c31)OCO4`, the AC50 under setting [1] is 11.2 µM [rising, partial curve].

In the case of `COc1ccc(S(=O)(=O)Nc2cc([N+](=O)[O-])ccc2OC)cc1`, under setting [1], the AC50 was 12.6 µM [rising, single point].

On to `CN1c2ccccc2Oc2ccccc21`, for which, under setting [1], the AC50 was 1.78 µM [rising, partial curve, poor fit].

Consider `Cn1c(O)c(C=NC2CCCCCC2)c(=O)[nH]c1=S`, for which, under setting [1], the AC50 is 3.98 µM [rising, partial curve, poor fit].

With `CC[N+]12CCC(CC1)C(=C(c1ccccc1)c1ccccc1)C2`, the AC50 under setting [1] is 10 µM [rising, partial curve].

Regarding `CCOP(=O)(OCC)c1nc(-c2cccc3ccccc23)oc1NCc1ccccc1`, the AC50 is 14.1 µM [rising, single point] under setting [2] and 17.8 µM [rising, single point] under setting [1].
